± gives the standard deviation of the averaged measurements. The list shows a part of the results, in another mix than the full data.

Chains of the proteins cited; added tags and fusions are not shown. Lines headed by an entry give the natural chain unless they say otherwise; changes in a name come on top.
UniProt Q9UIJ7: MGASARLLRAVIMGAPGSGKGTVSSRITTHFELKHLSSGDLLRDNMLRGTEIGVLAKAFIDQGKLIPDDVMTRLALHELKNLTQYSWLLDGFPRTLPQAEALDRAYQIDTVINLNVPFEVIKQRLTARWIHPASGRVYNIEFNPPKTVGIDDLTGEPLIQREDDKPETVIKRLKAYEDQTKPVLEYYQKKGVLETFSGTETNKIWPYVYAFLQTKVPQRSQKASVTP
UniProt Q9UKN8: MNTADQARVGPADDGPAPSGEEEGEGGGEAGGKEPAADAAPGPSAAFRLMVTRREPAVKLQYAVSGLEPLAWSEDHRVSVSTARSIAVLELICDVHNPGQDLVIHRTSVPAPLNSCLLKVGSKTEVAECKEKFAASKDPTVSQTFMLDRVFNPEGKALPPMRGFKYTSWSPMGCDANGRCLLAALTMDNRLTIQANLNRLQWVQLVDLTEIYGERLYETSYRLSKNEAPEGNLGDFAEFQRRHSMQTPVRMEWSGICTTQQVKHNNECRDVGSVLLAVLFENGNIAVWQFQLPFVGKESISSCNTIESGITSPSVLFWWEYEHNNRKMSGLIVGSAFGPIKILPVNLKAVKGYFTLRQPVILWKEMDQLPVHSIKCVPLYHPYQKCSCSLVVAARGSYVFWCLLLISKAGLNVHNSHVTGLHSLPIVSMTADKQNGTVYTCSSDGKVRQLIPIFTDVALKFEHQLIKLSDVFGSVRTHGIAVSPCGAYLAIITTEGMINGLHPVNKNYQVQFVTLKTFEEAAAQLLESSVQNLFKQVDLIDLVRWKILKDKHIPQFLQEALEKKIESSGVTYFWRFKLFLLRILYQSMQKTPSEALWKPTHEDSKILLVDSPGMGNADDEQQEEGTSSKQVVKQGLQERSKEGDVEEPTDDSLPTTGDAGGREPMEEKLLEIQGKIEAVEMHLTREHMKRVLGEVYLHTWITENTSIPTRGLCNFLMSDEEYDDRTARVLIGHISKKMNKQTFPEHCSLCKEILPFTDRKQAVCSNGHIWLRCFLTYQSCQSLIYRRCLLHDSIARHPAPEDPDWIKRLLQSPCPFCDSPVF
UniProt Q9UL03, whole entry: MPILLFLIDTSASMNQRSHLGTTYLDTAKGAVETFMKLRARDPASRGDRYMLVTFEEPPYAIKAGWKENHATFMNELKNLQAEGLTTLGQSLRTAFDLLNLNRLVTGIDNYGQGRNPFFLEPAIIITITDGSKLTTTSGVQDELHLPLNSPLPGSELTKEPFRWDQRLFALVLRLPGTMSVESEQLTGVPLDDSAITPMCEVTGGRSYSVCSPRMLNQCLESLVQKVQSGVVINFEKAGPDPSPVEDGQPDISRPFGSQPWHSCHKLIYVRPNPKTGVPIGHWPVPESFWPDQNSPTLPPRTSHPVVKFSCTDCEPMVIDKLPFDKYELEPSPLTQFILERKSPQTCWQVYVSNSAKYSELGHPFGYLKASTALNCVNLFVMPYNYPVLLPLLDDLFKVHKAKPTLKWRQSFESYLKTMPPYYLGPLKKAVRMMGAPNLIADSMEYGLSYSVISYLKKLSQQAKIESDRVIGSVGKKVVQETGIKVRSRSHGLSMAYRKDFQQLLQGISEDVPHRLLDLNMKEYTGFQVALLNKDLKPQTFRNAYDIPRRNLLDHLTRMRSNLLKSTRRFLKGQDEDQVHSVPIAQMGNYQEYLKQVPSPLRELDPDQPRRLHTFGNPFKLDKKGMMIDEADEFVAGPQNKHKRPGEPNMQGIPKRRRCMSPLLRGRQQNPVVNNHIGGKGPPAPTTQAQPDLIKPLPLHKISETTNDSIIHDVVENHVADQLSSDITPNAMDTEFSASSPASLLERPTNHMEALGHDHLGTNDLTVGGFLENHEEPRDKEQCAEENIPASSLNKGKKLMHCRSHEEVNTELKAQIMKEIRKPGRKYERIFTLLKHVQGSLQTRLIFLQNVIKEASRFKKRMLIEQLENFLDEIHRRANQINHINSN
UniProt Q9UIW2: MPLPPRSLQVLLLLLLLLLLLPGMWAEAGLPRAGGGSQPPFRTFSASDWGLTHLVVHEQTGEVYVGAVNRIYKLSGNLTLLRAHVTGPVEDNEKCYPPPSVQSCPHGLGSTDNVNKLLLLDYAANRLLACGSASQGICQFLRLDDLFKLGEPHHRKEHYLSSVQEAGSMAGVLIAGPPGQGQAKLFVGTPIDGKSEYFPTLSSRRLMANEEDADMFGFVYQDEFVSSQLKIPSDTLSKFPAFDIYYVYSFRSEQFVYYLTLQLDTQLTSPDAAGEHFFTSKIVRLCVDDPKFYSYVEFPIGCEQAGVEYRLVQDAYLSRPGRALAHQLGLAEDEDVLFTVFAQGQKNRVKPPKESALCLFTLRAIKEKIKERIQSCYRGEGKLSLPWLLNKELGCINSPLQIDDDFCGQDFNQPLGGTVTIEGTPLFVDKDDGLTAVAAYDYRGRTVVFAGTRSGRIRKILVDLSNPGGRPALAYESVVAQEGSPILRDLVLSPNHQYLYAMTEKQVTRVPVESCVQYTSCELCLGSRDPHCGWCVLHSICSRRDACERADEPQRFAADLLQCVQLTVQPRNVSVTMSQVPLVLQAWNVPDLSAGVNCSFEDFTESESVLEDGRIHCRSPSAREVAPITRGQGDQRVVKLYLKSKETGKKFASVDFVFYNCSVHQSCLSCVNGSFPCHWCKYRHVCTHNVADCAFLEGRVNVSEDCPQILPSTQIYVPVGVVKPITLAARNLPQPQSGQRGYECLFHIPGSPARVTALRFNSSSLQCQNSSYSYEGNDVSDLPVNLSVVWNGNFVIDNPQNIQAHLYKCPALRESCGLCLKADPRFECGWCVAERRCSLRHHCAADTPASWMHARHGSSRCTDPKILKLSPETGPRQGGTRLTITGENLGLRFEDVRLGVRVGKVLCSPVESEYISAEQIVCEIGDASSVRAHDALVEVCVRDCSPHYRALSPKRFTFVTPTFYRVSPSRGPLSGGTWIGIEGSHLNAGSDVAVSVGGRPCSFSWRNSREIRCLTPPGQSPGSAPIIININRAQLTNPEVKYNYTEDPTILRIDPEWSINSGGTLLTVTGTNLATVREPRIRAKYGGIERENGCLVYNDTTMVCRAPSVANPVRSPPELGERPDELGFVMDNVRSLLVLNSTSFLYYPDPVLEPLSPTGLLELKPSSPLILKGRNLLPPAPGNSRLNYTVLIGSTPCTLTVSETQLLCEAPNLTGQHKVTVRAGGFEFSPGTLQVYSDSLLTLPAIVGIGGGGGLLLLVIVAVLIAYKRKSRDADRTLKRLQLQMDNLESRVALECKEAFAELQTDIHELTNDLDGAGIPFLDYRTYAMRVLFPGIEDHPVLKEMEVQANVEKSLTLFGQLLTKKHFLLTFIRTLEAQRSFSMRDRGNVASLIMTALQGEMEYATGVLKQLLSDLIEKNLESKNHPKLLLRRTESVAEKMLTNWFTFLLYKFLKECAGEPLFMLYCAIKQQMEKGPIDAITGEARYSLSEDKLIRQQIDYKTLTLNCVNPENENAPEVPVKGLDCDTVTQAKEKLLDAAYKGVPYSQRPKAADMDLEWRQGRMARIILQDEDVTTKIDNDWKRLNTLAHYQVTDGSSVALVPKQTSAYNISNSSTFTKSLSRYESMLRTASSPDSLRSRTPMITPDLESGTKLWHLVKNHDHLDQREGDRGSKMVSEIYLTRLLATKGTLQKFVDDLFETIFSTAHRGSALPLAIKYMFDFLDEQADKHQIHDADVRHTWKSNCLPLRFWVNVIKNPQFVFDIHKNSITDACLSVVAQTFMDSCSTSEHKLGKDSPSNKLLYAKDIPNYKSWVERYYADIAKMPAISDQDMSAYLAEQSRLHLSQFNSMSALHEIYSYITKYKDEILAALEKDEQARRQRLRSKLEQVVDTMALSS
UniProt Q9P2W1: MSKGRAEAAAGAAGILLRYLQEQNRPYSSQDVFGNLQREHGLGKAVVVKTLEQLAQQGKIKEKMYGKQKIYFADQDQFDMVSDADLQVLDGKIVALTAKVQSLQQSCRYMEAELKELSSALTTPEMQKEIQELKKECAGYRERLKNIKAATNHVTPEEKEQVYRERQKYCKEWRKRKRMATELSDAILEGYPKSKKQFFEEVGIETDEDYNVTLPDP
UniProt Q9ULJ6: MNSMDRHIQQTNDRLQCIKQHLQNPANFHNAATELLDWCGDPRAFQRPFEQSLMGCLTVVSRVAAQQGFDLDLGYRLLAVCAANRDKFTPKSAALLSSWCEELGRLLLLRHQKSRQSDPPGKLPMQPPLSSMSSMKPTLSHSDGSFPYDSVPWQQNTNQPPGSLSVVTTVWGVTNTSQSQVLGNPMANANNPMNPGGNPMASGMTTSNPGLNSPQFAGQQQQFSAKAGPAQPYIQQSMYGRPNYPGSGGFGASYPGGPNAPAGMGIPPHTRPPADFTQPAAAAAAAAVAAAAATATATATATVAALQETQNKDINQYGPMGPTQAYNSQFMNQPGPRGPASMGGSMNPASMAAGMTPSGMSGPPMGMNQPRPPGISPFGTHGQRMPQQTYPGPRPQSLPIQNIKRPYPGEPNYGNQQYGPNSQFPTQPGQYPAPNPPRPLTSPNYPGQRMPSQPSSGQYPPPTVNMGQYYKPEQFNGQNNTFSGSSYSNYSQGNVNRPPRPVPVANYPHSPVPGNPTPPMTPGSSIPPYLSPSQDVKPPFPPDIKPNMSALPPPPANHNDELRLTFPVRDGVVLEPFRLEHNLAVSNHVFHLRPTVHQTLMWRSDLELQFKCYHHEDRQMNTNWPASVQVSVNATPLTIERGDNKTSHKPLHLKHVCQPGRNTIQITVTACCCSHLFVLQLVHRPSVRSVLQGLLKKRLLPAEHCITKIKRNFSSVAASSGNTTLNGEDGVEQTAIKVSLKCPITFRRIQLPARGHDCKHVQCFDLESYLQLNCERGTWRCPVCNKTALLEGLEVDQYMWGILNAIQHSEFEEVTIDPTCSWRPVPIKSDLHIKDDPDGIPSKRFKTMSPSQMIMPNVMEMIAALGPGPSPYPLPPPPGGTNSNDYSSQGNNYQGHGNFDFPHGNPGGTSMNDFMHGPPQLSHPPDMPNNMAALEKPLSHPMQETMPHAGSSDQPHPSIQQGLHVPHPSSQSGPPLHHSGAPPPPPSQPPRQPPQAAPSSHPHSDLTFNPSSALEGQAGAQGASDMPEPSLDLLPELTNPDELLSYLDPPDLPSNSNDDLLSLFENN
UniProt Q9Y217: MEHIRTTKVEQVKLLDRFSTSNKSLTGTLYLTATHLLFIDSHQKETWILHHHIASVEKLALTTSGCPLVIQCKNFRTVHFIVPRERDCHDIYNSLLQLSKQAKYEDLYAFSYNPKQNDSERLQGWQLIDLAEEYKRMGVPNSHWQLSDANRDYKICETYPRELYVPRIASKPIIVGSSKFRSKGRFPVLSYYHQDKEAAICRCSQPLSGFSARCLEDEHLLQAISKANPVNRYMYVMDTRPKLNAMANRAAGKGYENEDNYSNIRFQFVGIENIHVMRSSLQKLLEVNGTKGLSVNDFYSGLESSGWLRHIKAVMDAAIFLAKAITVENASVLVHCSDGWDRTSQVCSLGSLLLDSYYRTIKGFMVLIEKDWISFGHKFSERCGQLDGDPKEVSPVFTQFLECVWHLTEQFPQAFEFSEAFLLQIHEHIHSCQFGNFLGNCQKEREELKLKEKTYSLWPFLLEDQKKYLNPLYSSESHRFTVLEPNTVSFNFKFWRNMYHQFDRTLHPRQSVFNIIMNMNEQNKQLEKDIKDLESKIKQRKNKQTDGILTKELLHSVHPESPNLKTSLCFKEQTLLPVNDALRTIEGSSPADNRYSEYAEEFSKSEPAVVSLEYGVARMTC
UniProt Q9UQ90: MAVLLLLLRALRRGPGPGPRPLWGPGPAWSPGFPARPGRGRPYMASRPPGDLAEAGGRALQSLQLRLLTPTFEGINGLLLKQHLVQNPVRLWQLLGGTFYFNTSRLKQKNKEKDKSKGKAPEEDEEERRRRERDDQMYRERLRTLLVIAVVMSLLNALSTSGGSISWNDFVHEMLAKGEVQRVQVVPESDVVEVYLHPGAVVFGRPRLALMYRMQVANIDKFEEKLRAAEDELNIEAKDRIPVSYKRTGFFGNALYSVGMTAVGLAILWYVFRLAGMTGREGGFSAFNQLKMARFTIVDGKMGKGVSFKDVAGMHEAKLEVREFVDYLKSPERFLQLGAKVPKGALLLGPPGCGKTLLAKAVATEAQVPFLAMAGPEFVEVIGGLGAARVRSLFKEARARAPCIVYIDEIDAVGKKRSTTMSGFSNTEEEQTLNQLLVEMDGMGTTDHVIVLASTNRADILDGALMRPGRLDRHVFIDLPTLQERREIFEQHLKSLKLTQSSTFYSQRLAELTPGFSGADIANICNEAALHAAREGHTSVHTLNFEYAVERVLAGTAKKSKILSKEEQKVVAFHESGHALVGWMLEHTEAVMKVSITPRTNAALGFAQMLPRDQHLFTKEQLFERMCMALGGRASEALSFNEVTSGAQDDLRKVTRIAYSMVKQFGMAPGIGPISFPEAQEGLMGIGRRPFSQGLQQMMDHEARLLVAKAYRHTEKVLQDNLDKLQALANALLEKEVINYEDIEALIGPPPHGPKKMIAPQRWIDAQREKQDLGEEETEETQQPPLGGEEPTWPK

Compound in the test: Nc1ncnc2c1ncn2[C@@H]1O[C@H](COP(=O)(O)OP(=O)(O)OP(=O)(O)O)[C@@H](O)[C@H]1O [adenosine triphosphate]
Kind of test: NP40-soluble protein abundance relative to vehicle (solubility fold change) (ratio); higher = more soluble protein in presence of ATP. As to conditions: concentration: 1mM. The procedure, abridged: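 Data come from three independent experiments in which Dounce-homogenised Jurkat crude lysate was treated at eight concentrations from 0.1 to 10 mM. Treatment ran 10 min at room temperature and then 3 min at 37 °C, after which 0.8% NP40 and benzonase were added for 60 min at 4 °C before ultracentrifugation. The supernatant underwent TMT labelling and LC-MS/MS, and vsn-normalised intensities were expressed as fold change against the detergent-processed vehicle in each replicate.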
Regarding UniProt Q9Y252, the NP40-soluble protein abundance came out at 1.05 ± 0.073.

Regarding AKAP11 (UniProt Q9UKA4), the NP40-soluble protein abundance was 1.008 ± 0.0078.

For AK3 (UniProt Q9UIJ7), the NP40-soluble protein abundance worked out at 0.9201 ± 0.0046.

Take UniProt Q9UBL3 and related entries: the NP40-soluble protein abundance was 1.01 ± 0.031.

As for “UniProt Q9UK53-2|A0A0C4DFW2|Q9UK53 and related entries”, the NP40-soluble protein abundance was 1.02 ± 0.11.

As to SEL1L (UniProt Q9UBV2), the NP40-soluble protein abundance is 0.939 ± 0.019.

For the target STX8 (UniProt Q9UNK0), the NP40-soluble protein abundance stood at 0.911 ± 0.09.

On to UBA2 (UniProt Q9UBT2), for which the NP40-soluble protein abundance was 0.969 ± 0.02.

In the case of USP24 (UniProt Q9UPU5), the NP40-soluble protein abundance was determined as 1.01 ± 0.063.

As to ZMYM2 (UniProt Q9UBW7), the NP40-soluble protein abundance turned out to be 0.984 ± 0.041.

For RUVBL2 (UniProt Q9Y230), the NP40-soluble protein abundance was 1.11 ± 0.021.

Consider UniProt Q9UI30, for which the NP40-soluble protein abundance amounted to 1.07 ± 0.1.

On to GTF3C4 (UniProt Q9UKN8), for which the NP40-soluble protein abundance is 1.06 ± 0.043.

Consider UniProt Q9UL03 and related entries, for which the NP40-soluble protein abundance was 1.09 ± 0.056.

As to PLXNA1 (UniProt Q9UIW2), the NP40-soluble protein abundance was 1.01 ± 0.035.

For PSMC3IP (UniProt Q9P2W1), the NP40-soluble protein abundance was determined as 0.968 ± 0.051.

Turning to ZMIZ1 (UniProt Q9ULJ6), the NP40-soluble protein abundance was found to be 1.09 ± 0.17.

As to MTMR6 (UniProt Q9Y217), the NP40-soluble protein abundance was 0.985 ± 0.05.

For UniProt Q9UBD5 and related entries, the NP40-soluble protein abundance stood at 1.06 ± 0.062.

As to AMFR (UniProt Q9UKV5), the NP40-soluble protein abundance turned out to be 1.02 ± 0.035.

SPG7 (UniProt Q9UQ90): the NP40-soluble protein abundance is 1.09 ± 0.019.

As to SEC63 (UniProt Q9UGP8), the NP40-soluble protein abundance was 1.01 ± 0.03.

Take UXT (UniProt Q9UBK9): the NP40-soluble protein abundance stood at 0.9681 ± 0.0014.

UniProt Q9P2K3-3: the NP40-soluble protein abundance was 0.981 ± 0.055.

As for DPP7 (UniProt Q9UHL4), the NP40-soluble protein abundance amounted to 0.953 ± 0.037.

With UniProt Q9ULH7-4|Q9ULH7-5, the NP40-soluble protein abundance was found to be 0.948 ± 0.04.

Consider BCS1L (UniProt Q9Y276), for which the NP40-soluble protein abundance is 0.991 ± 0.14.

For ZHX1 (UniProt Q9UKY1), the NP40-soluble protein abundance came to 1.11 ± 0.1.

As to UniProt Q9UK41 and related entries, the NP40-soluble protein abundance is 0.987 ± 0.032.
